For some of these results: Whether high values mean tight binding is not given here for every scale.
Tests used:
TGF-β1 (Homo sapiens) [1] = biological target: TGF-β1 (Homo sapiens) (UniProt P01137); assay: activity in cells; conditions: 2'-F all pyrimidines (U,C), 80 pM:20 nM, purified recombinant protein, protein details: Recombinant Human TGF-β1, Peprotech
TGF-β1 (Homo sapiens) [2] = biological target: TGF-β1 (Homo sapiens) (UniProt P01137); assay: SPR; conditions: 2'-F all pyrimidines (U,C), receptor-binding inhibition, 10 nM:30 nM, purified recombinant protein, protein details: Recombinant Human TGF-β1, Peprotech, counted as no binding
[3] = binds by SPR, judged no cell inhibition
[4] = judged no inhibition, counted as no effect

By UniProt entry, the sequences of proteins in these tests, tags left out. Residues count along the entry.
UniProt P01137, 279-390: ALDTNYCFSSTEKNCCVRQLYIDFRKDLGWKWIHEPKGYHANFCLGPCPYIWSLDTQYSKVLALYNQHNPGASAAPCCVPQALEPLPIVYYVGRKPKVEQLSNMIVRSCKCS

Sequence: GGGAAUGCACUAGUGUUCAACAUUUAGCAACACAAGUCGUCCCCCACGGCAAGCAGUCCUCAAUCCUGACAAGCUUGCACGUCGAGUCAG [SEQ ID NO: 27]
- functional effect of the aptamer (TGF-β1 (Homo sapiens) [1]; [3]): -9 % inhibition

Sequence: GGGAAUGCACUAGUGUUCAAUAAACACUAAGUGAUCCUCCUGCAAGCUAUGAAGAACUUAACGGCUCGUAAAGCUUGCACGUCGAGUCAG [SEQ ID NO: 28]
- functional effect of the aptamer (TGF-β1 (Homo sapiens) [1]; [3]): -11 % inhibition

Sequence: GGGAGAACUUGGAGCUCCCCCUCGCACUUAAUGGGUUCUGUGGCUGGAGAAAGUGCGACGUCAGUC [SEQ ID NO: 18]
- functional effect of the aptamer (TGF-β1 (Homo sapiens) [1]; [3]): 16 % inhibition

Sequence: GGGAGAACUUGGAGCUCCUGAAUAAGGGAGGGAGACUUGUGGAGGGCAAGAGUGCGACGUCAGUC [SEQ ID NO: 39]
- binding signal (TGF-β1 (Homo sapiens) [2]; 1.9 at 10:10, variant of SEQ ID NO: 35): 5 % inhibition
- functional effect of the aptamer (TGF-β1 (Homo sapiens) [1]; judged no inhibition, variant of SEQ ID NO: 35, counted as no effect): 15 % inhibition

Sequence: GGGAGAACUUGGAGCUGAUGUCUGGAGUCCCCAUAUAUCACGUACAGUGUAGUGCGACGUCAGUC [SEQ ID NO: 17]
- functional effect of the aptamer (TGF-β1 (Homo sapiens) [1]; [3]): 7 % inhibition

Sequence: GGGAGAACUUGGAGCUGGUCCGGAAACUGGAUUCUCUCUAAAAGGGGUACCAGUGCGACGUCAGUC [SEQ ID NO: 20]
- functional effect of the aptamer (TGF-β1 (Homo sapiens) [1]; [3]): 16 % inhibition

Sequence: GGGAGAACUUGGAGCUUGACGGCGCUACAUUAUGCUCCAACGGUACUUUAUAGUGCGACGUCAGUC [SEQ ID NO: 22]
- functional effect of the aptamer (TGF-β1 (Homo sapiens) [1]; [3]): 16 % inhibition

Sequence: GGGAUCCGCAUCUAGAGUACACUAGUCACAUUGCGUGUACAUUACUCUGCGCAAUCGAUAAACGUCUACUGAAGCUAUCA [SEQ ID NO: 13]
- functional effect of the aptamer (TGF-β1 (Homo sapiens) [1]; [3]): 19 % inhibition

Sequence: GGGAUCCGCAUCUAGAGUACAUCGUGGCGGGAAAGCCGCCCCAUUCUCUCGGGUCCUAGAAACGUCUACUGAAGCUAUCA [SEQ ID NO: 5]
- functional effect of the aptamer (TGF-β1 (Homo sapiens) [1]; [3]): 11 % inhibition

Sequence: GGGAUCCGCAUCUAGAGUACCGCGUGAGCGGCGUCUUGCUAUGACGUAAAGAAUCGUUACAACGUCUACUGAAGCUAUCA [SEQ ID NO: 11]
- functional effect of the aptamer (TGF-β1 (Homo sapiens) [1]; [3]): 32 % inhibition

Sequence: GGGAUCCGCAUCUAGAGUACCUAGAGGUGACUUGGGACGCGAGUUAUAAGGGAAUAGUCCAACGUCUACUGAAGCUAUCA [SEQ ID NO: 12]
- functional effect of the aptamer (TGF-β1 (Homo sapiens) [1]; [4]): 14 % inhibition

Sequence: GGGAUCCGCAUCUAGAGUACGAAUAGUAAGGGAAUGACUCUCGGACCAAUGUAUUGCUAUAACGUCUACUGAAGCUAUCA [SEQ ID NO: 7]
- functional effect of the aptamer (TGF-β1 (Homo sapiens) [1]; [4]): 21 % inhibition

Sequence: GGGAUCCGCAUCUAGAGUACGAUGCAUGUUUUUAUAAAGUAUUGUUAUGUAAUGCAUCAAAACGUCUACUGAAGCUAUCA [SEQ ID NO: 10]
- functional effect of the aptamer (TGF-β1 (Homo sapiens) [1]; [4]): 15 % inhibition

Sequence: GGGAUCCGCAUCUAGAGUACGAUGUGCUUGUGCUGAAAUUAGAUUUCGCCGACUUUCCCUAACGUCUACUGAAGCUAUCA [SEQ ID NO: 8]
- functional effect of the aptamer (TGF-β1 (Homo sapiens) [1]; [4]): 22 % inhibition

Sequence: GGGCGGGGAAACUUGUGGUGGGCUAA [SEQ ID NO: 30]
- binding signal (TGF-β1 (Homo sapiens) [2]; variant of SEQ ID NO: 21): -5.84 % inhibition

Reference: patent US20220282255
